This test addresses PbE3-2 without signal peptide, bait in pGBKT7 (Plasmodiophora brassicae). Nature of the test: two-hybrid.

Results are given in words; binding and its absence hold for the method and conditions named.

B1: Arabidopsis cysteine protease 1 (AtCP1), yeast two-hybrid prey (enzyme, UniProt Q9FDX6 1-160)
chain: MCPSGRIAIPITTTANPNFRPAFEIIDTDHDGKISSDDLRAFYAGIPSGENNDETMIGTMISVADANKDGFVEFDEFEKVLETTPFSRSGNGGDDGLMKDVFKVMDKDGDGRLSYGDLKSYMDSAGLAVTDDEIKSMIRLAGGDLNDGVSFDGLLKIFGC
Take B1: the binding result was “no binding”.

Source of the values: article doi:10.1101/2022.10.26.513834.
